Experimental data taken from article PMC9663433.
No constants are given. Whether binding was seen depends on the method and setting. In cells and extracts the contact can be indirect. Some results given as binding are weak or reduced against the parent protein; the word gives no strength.

Chains of the proteins cited; added tags and fusions are not shown. Lines headed by an entry give the natural chain unless they say otherwise; changes in a name come on top. Residues count along the entry.
UniProt Q9NZQ7: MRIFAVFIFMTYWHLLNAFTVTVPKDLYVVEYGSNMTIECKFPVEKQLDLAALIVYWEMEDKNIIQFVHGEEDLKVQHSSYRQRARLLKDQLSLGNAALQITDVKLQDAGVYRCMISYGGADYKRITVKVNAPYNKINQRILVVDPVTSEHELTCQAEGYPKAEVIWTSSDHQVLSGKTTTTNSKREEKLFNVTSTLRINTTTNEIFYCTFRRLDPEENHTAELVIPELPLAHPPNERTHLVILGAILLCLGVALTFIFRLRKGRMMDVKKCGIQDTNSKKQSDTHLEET
PD-L1-HA: residues 19-290 of Q9NZQ7
UniProt Q9BVT8: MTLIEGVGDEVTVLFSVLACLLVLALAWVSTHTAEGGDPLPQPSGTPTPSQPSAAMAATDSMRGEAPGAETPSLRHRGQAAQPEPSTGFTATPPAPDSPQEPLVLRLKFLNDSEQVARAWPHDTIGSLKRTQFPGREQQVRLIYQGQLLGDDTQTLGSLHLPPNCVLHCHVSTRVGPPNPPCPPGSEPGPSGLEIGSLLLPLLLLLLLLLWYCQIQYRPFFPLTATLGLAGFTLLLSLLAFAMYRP

Experiments:
[1] = target: PD-L1-HA (human) (UniProt Q9NZQ7); experiment: co-IP; transfected HEK-293T cells, lysates in NETN buffer; FLAG-M2 or HA magnetic beads; immunoblot; in Fig. 3a, b cells treated with 5 μg/ml tunicamycin for 12 h or not, or 10 µM MG132 for 6 h
[2] = target: PD-L1-Flag truncation: Extracellular Domain (ECD) (human) (UniProt Q9NZQ7); experiment: as above
[3] = target: endogenous PD-L1 (MDA-MB-231 cells) (human (endogenous in MDA-MB-231)) (UniProt Q9NZQ7); experiment: co-IP; endogenous HUWE1 and PD-L1 in MDA-MB-231 cells with TMUB1 overexpression or not; IgG as negative control (Fig. 3j)
[4] = target: endogenous PD-L1 (MDA-MB-231 cells) (human (endogenous in MDA-MB-231)) (UniProt Q9NZQ7); experiment: co-IP; ER fraction of MDA-MB-231 cells; PD-L1 and TMUB1/HUWE1 (Fig. 3f)
[5] = target: endogenous PD-L1 (MDA-MB-231 cells) (human (endogenous in MDA-MB-231)) (UniProt Q9NZQ7); experiment: co-IP; MDA-MB-231 lysates in NETN buffer; primary antibody or control IgG, protein A/G magnetic beads, 4 °C; immunoblot; in some panels cells treated with 10 µM MG132 for 6 h, IFN-γ, c-Myc overexpression, TMUB1 overexpression (Fig. 3n) or 10 µM PTPR for 12 h (Fig. 6k)
[6] = target: endogenous PD-L1 (MDA-MB-231 cells) (human (endogenous in MDA-MB-231)) (UniProt Q9NZQ7); experiment: as above; remark: listed apart in the source
[7] = target: PD-L1-HA (human) (UniProt Q9NZQ7); experiment: co-IP; TMUB1-Flag and PD-L1-HA in HEK-293T cells untreated or treated with 10 µM PTPR-FITC for 12 h (Fig. 6i); the synthetic peptide added to the cells as competitor; only the binder purified

## HUWE1-Flag (from UniProt Q7Z6Z7 1-4374) (enzyme)
[1]
  binding: binds

## HUWE1-HA (HEK-293T cells) (from UniProt Q7Z6Z7 1-4374) (enzyme)
[2]
  binding: binds

## endogenous HUWE1 (MDA-MB-231 cells) (from UniProt Q7Z6Z7 1-4374) (enzyme)
[3]
  binding: binds
[4]
  binding: binds
[5]
  binding: binds

## HUWE1-HA (MDA-MB-231 cells) (from UniProt Q7Z6Z7 1-4374) (enzyme)
[5]
  binding: binds

B1: STT3A (enzyme, UniProt P46977 1-705)
chain: MTKFGFLRLSYEKQDTLLKLLILSMAAVLSFSTRLFAVLRFESVIHEFDPYFNYRTTRFLAEEGFYKFHNWFDDRAWYPLGRIIGGTIYPGLMITSAAIYHVLHFFHITIDIRNVCVFLAPLFSSFTTIVTYHLTKELKDAGAGLLAAAMIAVVPGYISRSVAGSYDNEGIAIFCMLLTYYMWIKAVKTGSICWAAKCALAYFYMVSSWGGYVFLINLIPLHVLVLMLTGRFSHRIYVAYCTVYCLGTILSMQISFVGFQPVLSSEHMAAFGVFGLCQIHAFVDYLRSKLNPQQFEVLFRSVISLVGFVLLTVGALLMLTGKISPWTGRFYSLLDPSYAKNNIPIIASVSEHQPTTWSSYYFDLQLLVFMFPVGLYYCFSNLSDARIFIIMYGVTSMYFSAVMVRLMLVLAPVMCILSGIGVSQVLSTYMKNLDISRPDKKSKKQQDSTYPIKNEVASGMILVMAFFLITYTFHSTWVTSEAYSSPSIVLSARGGDGSRIIFDDFREAYYWLRHNTPEDAKVMSWWDYGYQITAMANRTILVDNNTWNNTHISRVGQAMASTEEKAYEIMRELDVSYVLVIFGGLTGYSSDDINKFLWMVRIGGSTDTGKHIKENDYYTPTGEFRVDREGSPVLLNCLMYKMCYYRFGQVYTEAKRPPGFDRVRNAEIGNKDFELDVLEEAYTTEHWLVRIYKVKDLDNRGLSRT
[6]
  binding: binds

## GFTATPPAPDSPQEP (peptide, UniProt Q9BVT8 88-102, FITC (position not given)) [PTPR (Peptide of TMUB1 PD-L1 Regulatory domain)]
[7]
  binding: binds
